Measured values reported in patent EP1017810B1 (THE GOVERNMENT OF THE UNITED STATES OF AMERICA, as …, priority 1997, dated 2004).
HELM strings list residues between dots; [ac] is acetyl, [am] amide, other brackets name non-standard units.

Experiment: general procedure: Fmoc solid-phase peptide synthesis
Details: whole synthesis, C18 reverse-phase HPLC

PEPTIDE1{Y.L.S.G.A.N.I.N.L}$$$$V2.0
purity (crude or final not stated): greater than 90% pure
